# Assay results published in PMC12065913.
# By UniProt entry, the sequences of proteins in these tests, tags left out.
# UniProt P0A850: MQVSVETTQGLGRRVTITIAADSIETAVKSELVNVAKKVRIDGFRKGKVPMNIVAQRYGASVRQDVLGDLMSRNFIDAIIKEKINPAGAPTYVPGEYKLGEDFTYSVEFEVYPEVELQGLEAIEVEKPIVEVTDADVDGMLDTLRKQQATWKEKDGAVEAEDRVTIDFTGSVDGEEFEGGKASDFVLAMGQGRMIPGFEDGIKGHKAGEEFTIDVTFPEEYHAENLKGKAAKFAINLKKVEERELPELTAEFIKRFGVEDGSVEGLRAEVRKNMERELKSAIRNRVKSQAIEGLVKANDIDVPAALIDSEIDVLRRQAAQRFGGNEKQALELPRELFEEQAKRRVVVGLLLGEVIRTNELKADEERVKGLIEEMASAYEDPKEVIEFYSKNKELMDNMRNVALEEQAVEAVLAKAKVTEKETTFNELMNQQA
# UniProt P0A6Y8: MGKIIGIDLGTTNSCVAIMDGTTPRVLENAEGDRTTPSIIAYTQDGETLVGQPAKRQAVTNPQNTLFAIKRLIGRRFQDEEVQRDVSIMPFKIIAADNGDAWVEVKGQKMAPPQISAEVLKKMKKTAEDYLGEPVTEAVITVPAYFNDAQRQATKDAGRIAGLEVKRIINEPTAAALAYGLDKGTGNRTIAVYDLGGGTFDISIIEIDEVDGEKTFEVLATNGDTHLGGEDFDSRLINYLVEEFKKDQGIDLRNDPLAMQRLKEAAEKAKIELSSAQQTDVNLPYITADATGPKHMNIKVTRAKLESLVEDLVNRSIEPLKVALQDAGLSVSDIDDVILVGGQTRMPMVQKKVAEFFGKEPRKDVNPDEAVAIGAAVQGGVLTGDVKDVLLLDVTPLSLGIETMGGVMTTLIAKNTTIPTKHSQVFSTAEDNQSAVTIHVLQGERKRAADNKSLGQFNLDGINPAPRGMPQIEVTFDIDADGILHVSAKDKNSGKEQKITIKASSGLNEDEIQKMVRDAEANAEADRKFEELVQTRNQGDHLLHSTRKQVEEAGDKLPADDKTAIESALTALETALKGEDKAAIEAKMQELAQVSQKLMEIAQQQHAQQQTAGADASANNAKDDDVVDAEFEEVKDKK
# UniProt P0A6F5: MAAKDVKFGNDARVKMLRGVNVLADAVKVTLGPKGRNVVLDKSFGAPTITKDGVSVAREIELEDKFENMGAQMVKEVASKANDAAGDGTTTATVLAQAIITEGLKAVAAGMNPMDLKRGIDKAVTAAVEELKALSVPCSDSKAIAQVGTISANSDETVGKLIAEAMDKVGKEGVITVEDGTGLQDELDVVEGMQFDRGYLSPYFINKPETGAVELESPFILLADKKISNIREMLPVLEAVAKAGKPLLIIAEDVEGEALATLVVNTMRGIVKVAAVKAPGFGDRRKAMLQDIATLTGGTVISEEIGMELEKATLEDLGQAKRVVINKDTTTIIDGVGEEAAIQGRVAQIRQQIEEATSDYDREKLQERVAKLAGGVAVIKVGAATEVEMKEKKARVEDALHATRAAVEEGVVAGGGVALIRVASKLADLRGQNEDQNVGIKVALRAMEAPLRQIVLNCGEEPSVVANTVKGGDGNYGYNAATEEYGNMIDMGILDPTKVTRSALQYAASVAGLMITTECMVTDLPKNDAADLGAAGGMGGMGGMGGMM
# UniProt P0AES4: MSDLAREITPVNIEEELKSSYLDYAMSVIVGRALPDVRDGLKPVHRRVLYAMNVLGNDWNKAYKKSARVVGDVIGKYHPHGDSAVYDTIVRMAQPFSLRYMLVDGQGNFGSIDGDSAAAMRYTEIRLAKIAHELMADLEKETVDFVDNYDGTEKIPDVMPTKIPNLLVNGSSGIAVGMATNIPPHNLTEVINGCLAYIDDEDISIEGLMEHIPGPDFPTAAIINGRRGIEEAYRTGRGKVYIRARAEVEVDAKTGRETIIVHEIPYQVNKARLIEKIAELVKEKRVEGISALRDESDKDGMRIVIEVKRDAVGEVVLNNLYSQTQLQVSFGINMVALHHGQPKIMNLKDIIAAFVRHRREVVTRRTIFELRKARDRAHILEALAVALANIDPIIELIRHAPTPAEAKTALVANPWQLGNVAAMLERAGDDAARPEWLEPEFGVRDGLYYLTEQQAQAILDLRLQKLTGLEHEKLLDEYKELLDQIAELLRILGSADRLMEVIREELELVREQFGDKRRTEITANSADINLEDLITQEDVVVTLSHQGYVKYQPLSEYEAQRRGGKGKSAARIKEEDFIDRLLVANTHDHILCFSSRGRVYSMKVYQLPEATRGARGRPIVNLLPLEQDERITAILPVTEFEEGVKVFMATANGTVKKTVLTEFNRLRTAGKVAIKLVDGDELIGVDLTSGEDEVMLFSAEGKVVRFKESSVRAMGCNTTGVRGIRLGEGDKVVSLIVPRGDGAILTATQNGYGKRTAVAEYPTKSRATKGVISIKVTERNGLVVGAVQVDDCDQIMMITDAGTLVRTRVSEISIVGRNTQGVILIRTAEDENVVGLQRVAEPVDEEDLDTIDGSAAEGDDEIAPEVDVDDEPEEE
# UniProt P60785: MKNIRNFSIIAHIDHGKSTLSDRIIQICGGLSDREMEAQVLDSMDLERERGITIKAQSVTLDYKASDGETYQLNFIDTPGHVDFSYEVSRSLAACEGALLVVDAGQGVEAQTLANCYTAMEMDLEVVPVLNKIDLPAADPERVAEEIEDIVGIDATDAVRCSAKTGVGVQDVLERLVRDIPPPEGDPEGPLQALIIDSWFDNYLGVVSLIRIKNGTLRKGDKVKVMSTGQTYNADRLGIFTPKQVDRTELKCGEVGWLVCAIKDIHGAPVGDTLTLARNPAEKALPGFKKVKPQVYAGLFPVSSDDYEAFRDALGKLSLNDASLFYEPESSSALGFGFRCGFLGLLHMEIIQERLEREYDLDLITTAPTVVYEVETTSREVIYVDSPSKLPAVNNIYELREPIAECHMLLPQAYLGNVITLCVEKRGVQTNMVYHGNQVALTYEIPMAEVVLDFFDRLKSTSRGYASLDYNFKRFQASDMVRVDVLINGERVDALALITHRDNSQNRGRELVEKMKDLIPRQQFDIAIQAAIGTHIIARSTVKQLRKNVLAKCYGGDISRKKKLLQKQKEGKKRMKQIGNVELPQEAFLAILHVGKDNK
# UniProt P07813: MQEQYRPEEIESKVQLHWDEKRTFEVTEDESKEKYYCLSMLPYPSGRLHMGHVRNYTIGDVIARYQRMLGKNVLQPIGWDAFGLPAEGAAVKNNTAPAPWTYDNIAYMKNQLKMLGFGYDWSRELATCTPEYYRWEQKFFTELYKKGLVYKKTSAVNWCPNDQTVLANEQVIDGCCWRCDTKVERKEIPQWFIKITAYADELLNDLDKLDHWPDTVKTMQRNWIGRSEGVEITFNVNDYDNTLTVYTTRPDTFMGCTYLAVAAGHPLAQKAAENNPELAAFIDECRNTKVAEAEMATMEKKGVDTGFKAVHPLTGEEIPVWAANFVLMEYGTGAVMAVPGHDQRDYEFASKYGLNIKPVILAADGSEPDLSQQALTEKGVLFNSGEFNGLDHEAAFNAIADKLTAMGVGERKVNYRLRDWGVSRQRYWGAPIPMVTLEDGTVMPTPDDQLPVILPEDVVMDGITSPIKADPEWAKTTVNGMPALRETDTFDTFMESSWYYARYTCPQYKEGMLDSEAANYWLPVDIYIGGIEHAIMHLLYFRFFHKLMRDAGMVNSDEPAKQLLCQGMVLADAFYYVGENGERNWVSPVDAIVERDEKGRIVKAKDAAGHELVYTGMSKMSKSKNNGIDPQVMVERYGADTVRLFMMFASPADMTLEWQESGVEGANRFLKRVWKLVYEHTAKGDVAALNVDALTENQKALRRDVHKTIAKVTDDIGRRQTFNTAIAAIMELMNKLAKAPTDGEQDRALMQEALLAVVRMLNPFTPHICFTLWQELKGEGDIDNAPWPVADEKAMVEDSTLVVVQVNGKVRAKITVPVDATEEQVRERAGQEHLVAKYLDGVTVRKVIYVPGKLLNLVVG
# UniProt P13009: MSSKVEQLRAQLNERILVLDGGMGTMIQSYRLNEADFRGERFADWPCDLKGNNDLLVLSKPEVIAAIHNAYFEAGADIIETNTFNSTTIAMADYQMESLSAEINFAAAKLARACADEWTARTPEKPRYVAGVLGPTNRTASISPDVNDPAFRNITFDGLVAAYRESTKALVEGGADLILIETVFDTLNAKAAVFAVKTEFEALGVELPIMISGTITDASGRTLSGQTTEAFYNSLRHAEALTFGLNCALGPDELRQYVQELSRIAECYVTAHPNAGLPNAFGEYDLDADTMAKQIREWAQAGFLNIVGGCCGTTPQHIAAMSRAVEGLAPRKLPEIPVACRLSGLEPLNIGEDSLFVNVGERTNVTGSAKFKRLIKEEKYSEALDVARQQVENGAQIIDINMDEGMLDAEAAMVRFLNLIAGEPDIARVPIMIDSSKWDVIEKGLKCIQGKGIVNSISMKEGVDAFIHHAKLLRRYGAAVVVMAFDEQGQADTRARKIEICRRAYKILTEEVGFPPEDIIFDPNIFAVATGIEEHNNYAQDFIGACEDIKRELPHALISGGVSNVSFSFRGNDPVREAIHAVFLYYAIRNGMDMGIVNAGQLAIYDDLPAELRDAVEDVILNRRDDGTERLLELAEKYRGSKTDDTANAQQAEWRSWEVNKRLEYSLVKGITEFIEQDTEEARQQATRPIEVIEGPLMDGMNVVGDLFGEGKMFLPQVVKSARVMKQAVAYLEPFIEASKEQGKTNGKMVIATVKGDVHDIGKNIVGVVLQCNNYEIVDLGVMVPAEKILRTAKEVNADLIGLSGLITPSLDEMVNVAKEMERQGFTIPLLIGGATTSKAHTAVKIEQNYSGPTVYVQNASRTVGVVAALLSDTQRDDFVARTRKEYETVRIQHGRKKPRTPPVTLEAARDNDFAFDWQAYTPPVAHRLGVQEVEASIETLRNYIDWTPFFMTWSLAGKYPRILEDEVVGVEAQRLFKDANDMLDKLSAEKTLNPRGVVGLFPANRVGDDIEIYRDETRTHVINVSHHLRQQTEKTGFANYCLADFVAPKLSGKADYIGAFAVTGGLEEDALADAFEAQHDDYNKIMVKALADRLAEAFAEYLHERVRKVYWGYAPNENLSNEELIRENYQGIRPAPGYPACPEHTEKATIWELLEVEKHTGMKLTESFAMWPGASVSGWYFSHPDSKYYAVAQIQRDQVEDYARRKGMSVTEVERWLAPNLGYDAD
# UniProt P24255: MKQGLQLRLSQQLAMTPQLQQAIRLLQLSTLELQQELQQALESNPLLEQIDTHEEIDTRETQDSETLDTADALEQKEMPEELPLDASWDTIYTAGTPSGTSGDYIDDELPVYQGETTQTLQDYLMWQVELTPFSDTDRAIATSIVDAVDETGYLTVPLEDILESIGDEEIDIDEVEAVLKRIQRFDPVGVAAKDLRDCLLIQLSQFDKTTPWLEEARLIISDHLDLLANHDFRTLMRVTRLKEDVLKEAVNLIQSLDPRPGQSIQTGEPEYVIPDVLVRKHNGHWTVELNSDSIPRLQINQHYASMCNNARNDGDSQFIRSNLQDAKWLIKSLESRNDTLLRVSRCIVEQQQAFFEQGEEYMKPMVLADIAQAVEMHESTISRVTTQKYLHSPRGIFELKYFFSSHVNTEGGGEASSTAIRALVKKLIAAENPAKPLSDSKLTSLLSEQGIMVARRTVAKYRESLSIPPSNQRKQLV
# UniProt P21169: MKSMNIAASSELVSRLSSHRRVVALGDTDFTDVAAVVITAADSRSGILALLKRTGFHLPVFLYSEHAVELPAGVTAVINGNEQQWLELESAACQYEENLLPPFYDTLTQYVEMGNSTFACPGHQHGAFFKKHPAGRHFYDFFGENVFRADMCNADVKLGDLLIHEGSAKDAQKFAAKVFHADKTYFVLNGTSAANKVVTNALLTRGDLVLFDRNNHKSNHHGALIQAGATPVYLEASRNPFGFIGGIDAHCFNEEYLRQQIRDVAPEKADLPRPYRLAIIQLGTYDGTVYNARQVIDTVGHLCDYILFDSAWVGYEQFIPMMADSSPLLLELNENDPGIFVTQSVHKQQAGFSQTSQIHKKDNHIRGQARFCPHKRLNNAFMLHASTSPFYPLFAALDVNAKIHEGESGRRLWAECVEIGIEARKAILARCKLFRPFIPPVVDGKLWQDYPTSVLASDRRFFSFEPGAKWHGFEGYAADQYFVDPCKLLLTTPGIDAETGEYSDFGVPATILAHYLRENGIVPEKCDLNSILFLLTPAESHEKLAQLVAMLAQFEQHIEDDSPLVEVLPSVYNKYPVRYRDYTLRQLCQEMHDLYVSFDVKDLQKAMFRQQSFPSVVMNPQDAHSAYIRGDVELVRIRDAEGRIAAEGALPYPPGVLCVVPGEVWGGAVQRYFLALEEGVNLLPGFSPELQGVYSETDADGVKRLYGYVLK
# No constants are given. Whether binding was seen depends on the method and setting. Some results given as binding are weak or reduced against the parent protein; the word gives no strength.
# What was measured:
# [1] = biological target: Trigger Factor (tig-TEV-Avi) (E. coli) (UniProt P0A850); test: selective ribosome profiling (SeRP); affinity purification of TF-TEV-Avi with ribosome-nascent chain complexes from E. coli lysate, no chemical cross-linking; ribosome footprints sequenced, enrichment over the total translatome
# [2] = biological target: DnaK (E. coli (endogenous in E. coli cells)) (UniProt P0A6Y8); test: selective ribosome profiling (SeRP); immunoprecipitation of DnaK (anti-DnaK antibody on Dynabeads) with ribosome-nascent chain complexes; ATP depleted with hexokinase; MNase digest, sucrose cushion; ribosome footprints sequenced
# [3] = biological target: GroEL (E. coli (endogenous in MC4100)) (UniProt P0A6F5); test: selective ribosome profiling (immunoprecipitation of chaperone-bound ribosome-nascent chain complexes, sequencing of the mRNA footprints); GroEL immunoprecipitated with anti-GroEL antibody from ATP-depleted lysate cross-linked with 60 mM EDC; WT, Δtig and ΔdnaK strain backgrounds; selected translatome normalised by the total translatome
# [4] = biological target: DnaK (E. coli (endogenous in MC4100)) (UniProt P0A6Y8); test: selective ribosome profiling (immunoprecipitation of chaperone-bound ribosome-nascent chain complexes, sequencing of the mRNA footprints); DnaK immunoprecipitated with anti-DnaK antibody on Dynabeads from ATP-depleted (hexokinase) lysate after MNase digest and sucrose cushion; selected translatome normalised by the total translatome
Substance,binding [1],binding [2],further results
nascent AceE (from UniProt P0AFG8 1-887),binds,binds,binding [3]: binds
nascent GyrA (from UniProt P0AES4 1-875),binds,binds,
nascent LepA (from UniProt P60785 1-599),,binds,
nascent LeuS (from UniProt P07813 1-860),,binds,
nascent MetH (from UniProt P13009 1-1227),,binds,
nascent RfbA (from UniProt P37744 1-293),binds,,
nascent RpoN (from UniProt P24255 1-477),,,binding [4]: binds
nascent SpeC (from UniProt P21169 1-711),,,binding [4]: binds
